# The list shows a part of the results.
# By UniProt entry, the sequences of proteins in these tests, tags left out. Where a name states a change or a piece, a line headed by the entry shows the natural chain unless it says otherwise.
# UniProt Q6IBW4: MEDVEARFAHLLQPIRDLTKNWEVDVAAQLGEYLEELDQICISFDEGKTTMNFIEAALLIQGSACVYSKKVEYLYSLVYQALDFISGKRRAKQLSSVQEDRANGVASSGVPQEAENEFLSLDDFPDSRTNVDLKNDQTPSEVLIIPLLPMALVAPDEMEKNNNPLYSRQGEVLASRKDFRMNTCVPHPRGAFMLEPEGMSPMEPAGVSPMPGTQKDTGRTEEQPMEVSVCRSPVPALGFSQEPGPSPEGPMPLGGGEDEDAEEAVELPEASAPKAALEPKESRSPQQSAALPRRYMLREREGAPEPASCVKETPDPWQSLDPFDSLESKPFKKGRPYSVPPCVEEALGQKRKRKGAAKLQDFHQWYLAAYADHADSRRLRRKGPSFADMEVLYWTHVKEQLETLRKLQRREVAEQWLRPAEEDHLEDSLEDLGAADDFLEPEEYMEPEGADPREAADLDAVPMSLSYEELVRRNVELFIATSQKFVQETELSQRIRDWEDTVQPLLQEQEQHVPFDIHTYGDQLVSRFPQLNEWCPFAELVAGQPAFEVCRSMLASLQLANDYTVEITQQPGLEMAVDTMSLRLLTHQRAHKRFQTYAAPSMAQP
# UniProt B0I1T2: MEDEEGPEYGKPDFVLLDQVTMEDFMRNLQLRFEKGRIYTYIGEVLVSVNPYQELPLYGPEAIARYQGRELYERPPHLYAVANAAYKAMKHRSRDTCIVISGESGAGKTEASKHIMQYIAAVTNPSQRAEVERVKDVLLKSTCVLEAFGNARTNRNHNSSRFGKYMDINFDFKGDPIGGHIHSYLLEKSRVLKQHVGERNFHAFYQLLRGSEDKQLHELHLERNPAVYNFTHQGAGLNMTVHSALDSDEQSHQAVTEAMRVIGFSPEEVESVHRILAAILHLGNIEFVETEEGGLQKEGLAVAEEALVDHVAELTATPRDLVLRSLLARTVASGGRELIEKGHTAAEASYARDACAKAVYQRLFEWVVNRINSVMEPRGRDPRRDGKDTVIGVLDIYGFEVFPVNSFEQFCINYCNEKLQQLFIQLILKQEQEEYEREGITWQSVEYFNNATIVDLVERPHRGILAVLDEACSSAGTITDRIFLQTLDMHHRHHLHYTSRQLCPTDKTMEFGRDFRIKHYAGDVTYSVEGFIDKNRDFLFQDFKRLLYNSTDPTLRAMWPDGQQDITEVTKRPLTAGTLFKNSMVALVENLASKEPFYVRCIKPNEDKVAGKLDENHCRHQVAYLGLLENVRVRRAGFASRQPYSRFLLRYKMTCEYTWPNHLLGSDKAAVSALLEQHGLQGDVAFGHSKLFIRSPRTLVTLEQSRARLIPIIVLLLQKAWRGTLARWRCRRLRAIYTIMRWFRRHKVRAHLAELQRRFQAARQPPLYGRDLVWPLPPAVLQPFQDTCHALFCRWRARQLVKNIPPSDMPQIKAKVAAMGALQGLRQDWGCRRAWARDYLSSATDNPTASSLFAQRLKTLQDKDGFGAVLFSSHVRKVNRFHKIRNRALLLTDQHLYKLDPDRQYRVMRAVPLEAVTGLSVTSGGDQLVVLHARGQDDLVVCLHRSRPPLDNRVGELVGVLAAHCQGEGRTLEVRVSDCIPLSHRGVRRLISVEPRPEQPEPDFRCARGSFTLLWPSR
# UniProt Q13564: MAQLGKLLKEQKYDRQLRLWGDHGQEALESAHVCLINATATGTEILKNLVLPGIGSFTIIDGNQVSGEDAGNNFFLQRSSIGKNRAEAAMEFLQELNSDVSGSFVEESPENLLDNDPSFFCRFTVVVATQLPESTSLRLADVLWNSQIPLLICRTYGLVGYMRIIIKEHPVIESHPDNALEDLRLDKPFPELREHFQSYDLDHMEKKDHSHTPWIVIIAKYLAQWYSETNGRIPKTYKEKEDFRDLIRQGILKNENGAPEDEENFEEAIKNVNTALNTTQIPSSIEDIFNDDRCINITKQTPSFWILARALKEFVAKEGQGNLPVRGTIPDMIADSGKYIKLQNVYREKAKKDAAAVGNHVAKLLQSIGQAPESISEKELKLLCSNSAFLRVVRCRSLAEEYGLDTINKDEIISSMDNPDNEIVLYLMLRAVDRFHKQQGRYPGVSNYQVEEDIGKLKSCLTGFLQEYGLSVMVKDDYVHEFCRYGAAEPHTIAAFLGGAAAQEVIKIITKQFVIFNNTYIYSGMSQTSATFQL
# UniProt P52298: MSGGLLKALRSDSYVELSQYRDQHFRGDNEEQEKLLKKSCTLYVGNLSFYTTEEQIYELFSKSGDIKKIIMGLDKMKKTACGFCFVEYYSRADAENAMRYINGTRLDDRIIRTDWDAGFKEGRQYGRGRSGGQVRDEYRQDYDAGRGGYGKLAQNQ
# UniProt Q15003, whole entry, looked up: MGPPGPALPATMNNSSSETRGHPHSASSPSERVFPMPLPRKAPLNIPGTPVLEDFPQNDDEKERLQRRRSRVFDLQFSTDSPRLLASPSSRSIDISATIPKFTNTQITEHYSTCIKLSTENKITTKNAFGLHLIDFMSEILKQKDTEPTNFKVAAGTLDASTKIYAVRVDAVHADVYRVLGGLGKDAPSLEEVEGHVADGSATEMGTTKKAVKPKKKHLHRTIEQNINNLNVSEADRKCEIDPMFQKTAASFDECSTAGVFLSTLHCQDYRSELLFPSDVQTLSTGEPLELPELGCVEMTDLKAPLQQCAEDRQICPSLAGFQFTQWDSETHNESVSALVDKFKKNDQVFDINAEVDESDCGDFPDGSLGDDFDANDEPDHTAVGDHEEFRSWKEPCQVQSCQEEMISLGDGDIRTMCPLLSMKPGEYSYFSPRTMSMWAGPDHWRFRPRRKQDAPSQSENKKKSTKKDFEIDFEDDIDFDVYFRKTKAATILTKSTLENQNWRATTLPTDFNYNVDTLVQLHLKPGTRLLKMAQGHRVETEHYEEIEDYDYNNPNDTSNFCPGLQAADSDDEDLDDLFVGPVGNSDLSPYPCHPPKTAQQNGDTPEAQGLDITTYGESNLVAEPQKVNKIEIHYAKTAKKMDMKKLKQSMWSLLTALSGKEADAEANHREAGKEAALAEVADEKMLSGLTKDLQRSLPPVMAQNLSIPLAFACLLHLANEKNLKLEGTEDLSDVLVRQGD
# UniProt P42695: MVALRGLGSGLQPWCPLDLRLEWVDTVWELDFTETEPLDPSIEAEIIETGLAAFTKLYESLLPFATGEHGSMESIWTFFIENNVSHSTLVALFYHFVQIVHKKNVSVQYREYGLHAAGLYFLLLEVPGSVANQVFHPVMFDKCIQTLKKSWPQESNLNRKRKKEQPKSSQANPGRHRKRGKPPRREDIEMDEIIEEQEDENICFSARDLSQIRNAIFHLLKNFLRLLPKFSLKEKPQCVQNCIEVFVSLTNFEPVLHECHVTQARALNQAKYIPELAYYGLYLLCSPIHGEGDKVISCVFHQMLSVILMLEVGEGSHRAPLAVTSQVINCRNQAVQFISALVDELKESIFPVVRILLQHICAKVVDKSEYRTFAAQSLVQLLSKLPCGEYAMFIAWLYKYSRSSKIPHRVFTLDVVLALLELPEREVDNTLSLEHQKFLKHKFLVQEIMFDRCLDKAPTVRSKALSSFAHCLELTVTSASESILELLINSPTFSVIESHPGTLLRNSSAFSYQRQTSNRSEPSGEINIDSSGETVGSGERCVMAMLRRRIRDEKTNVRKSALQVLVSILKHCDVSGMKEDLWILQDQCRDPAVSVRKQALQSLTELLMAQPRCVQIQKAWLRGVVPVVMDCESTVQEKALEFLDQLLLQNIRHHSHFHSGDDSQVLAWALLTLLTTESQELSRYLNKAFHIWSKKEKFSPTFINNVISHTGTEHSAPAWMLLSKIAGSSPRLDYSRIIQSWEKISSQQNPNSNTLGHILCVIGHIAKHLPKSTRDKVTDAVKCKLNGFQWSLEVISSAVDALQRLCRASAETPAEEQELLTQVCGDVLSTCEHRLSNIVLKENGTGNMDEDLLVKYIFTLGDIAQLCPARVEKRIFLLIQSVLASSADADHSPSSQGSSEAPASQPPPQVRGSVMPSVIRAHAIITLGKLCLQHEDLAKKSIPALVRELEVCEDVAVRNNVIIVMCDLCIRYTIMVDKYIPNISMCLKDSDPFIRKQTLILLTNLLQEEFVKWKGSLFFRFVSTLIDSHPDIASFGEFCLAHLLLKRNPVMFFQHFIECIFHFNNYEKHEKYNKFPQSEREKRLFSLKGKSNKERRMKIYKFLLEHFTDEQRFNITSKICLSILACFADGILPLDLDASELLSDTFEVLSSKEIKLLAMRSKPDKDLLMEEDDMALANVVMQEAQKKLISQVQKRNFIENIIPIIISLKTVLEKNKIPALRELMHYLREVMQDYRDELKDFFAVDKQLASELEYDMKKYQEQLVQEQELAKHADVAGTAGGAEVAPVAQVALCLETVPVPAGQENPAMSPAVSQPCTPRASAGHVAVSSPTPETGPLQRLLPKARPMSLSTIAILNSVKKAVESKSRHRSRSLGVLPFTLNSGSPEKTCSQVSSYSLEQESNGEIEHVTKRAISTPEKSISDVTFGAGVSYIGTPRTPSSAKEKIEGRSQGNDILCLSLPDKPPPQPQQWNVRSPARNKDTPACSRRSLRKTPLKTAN
# UniProt Q14CX7, whole entry, looked up: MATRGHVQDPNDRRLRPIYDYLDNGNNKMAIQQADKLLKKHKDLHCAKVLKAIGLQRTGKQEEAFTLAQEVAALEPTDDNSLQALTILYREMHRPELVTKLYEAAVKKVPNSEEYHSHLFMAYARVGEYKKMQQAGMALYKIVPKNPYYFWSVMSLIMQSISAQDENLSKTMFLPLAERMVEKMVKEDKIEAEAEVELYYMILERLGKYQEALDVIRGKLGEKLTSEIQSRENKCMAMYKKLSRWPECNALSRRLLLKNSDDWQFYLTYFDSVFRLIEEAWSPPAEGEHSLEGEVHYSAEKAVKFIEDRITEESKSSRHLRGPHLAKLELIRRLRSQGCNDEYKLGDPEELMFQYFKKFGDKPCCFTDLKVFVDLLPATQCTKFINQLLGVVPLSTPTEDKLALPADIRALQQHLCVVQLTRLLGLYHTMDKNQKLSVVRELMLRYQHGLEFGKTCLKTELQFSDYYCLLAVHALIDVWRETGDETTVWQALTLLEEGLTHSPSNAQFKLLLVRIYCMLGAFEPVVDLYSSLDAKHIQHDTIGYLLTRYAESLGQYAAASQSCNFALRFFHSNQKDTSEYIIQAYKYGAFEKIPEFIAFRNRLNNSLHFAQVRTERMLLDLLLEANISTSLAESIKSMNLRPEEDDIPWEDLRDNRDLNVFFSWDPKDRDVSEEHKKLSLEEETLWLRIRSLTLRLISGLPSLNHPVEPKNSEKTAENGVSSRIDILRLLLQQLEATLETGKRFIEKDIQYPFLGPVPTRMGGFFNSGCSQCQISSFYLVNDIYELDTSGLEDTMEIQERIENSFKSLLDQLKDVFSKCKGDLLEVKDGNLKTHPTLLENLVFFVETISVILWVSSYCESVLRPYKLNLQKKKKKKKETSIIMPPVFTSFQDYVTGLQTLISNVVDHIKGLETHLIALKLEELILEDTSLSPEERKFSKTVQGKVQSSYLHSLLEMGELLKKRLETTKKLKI
# UniProt Q96RE7: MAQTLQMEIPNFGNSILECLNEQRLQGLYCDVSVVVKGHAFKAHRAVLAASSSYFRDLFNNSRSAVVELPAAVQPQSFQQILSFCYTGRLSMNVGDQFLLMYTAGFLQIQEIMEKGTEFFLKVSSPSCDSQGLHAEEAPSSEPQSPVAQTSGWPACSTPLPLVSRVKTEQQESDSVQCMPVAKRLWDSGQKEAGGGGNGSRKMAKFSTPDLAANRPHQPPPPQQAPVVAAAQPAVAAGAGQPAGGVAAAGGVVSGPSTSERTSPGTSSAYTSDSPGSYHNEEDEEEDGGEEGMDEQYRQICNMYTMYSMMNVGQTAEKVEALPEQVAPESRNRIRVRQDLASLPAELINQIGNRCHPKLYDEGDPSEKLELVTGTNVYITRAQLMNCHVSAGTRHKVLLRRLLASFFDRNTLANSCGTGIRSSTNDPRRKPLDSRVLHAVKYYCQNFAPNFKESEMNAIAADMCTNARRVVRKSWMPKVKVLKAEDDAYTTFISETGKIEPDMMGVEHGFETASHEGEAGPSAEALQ
# UniProt O43776: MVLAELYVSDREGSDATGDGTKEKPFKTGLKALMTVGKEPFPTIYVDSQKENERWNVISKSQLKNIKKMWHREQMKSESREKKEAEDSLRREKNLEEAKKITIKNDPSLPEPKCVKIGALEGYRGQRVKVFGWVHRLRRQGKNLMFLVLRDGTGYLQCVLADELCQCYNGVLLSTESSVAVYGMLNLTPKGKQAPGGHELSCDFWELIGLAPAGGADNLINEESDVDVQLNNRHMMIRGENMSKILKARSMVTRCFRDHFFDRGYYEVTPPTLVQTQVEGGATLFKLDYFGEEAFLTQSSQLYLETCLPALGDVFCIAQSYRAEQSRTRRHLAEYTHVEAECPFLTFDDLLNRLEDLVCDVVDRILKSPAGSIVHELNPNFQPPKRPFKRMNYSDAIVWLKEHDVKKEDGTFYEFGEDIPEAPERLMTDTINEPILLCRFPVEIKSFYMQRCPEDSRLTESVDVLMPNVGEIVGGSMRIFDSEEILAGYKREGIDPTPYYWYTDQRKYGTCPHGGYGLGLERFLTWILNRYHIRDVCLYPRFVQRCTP
# Compound: CC1Cc2ccccc2N1C(=O)C1CCCN(C1)C(=O)CCl (mixture of isomers) [TRIM25 ligand 11 (diastereomer mixture)]
# Experiment: probe-labelled cysteine peptide fold change vs DMSO (competition) (log2 fold change); higher = less target engagement (more negative = stronger competition)
# Settings: 10 µM; THP-1; incubation time: 4 h
# 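Further: competitive chemoproteomic profiling in live THP-1 cells with an iodoacetamide desthiobiotin (IA-DTB) probe, comparing probe-labelled peptide intensities in compound-treated cells against DMSO-treated controls.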
row,Target,probe-labelled cysteine peptide fold change
1,NBEAL2_Q6ZNJ1_1661_CSWLVPLVR (UniProt Q6ZNJ1),-0.161
2,NCAPH2_Q6IBW4_309_EGAPEPASCVK (UniProt Q6IBW4),0.0125
3,NAPA_P54920_84_HDAATCFVDAGNAFKK (UniProt P54920),-0.123
4,MYO1G_B0I1T2_965_VGELVGVLAAHCQGEGR (UniProt B0I1T2),0.0375
5,NBEAL1_Q6ZS30_271_CLTEVVHILLSSNSDQR (UniProt Q6ZS30),0.216
6,NAE1_Q13564_460_SCLTGFLQEYGLSVMVK (UniProt Q13564),0.102
7,NCBP2_P52298_84_TACGFCFVEYYSR (UniProt P52298),-0.0379
8,NASP_P49321_568_LGEVSVESENYVQAVEEFQSCLNLQEQYLEAHDR (UniProt P49321),-0.127
9,MYO1F_O00160_807_GQVCEVLKK (UniProt O00160),-0.0572
10,NCBP1_Q09161_477_ILDIVPPTFSALCPANPTCIYK (UniProt Q09161),0.0139
11,NBEAL2_Q6ZNJ1_1619_REEACYVLSK (UniProt Q6ZNJ1),0.0423
12,NCAPD2_Q15021_596_ESTGNMVTGQTVCK (UniProt Q15021),-0.0711
13,MYO1G_B0I1T2_97_DTCIVISGESGAGK (UniProt B0I1T2),0.0799
14,NBAS_A2RRP1_1777_LQYYFTLLENCGCADLGNCAIKPETHIR (UniProt A2RRP1),0.0499
15,NANS_Q9NR45_46_ECGADCAK (UniProt Q9NR45),0.167
16,NAA35_Q5VZE5_420_DCIDSFVTHCVRPFCSLIQIHGHNR (UniProt Q5VZE5),-0.219
17,NCAPH_Q15003_267_TAASFDECSTAGVFLSTLHCQDYR (UniProt Q15003),-0.0113
18,NCAPH_Q15003_418_TMCPLLSMKPGEYSYFSPR (UniProt Q15003),-0.158
19,NCAPD3_P42695_588_EDLWILQDQCR (UniProt P42695),0.509
20,NCAPH_Q15003_418_TMCPLLSMK (UniProt Q15003),-0.135

# Two consecutive entries out of the list so far, for reference:
row,Target,probe-labelled cysteine peptide fold change
1,NBEAL2_Q6ZNJ1_1661_CSWLVPLVR (UniProt Q6ZNJ1),-0.161
2,NCAPH2_Q6IBW4_309_EGAPEPASCVK (UniProt Q6IBW4),0.0125

# Next part

row,Target,probe-labelled cysteine peptide fold change
1,NCAPD3_P42695_143_CIQTLK (UniProt P42695),0.0922
2,NAA25_Q14CX7_235_CMAMYK (UniProt Q14CX7),-0.0177
3,NADSYN1_Q6IA69_338_YHSPEEEISLGPACWLWDFLRR (UniProt Q6IA69),0.433
4,NACC1_Q96RE7_464_ESEMNAIAADMCTNAR (UniProt Q96RE7),0.11
5,NAE1_Q13564_34_LWGDHGQEALESAHVCLINATATGTEILK (UniProt Q13564),-0.0284
6,NBN_O60934_323_NYCDPQGHPSTGLK (UniProt O60934),0.245
7,NARS_O43776_452_CPEDSR (UniProt O43776),-0.0178
8,N4BP2_Q86UW6_1096_STFVEESELTSADESENLNILCK (UniProt Q86UW6),-0.188
9,NARS_O43776_438_LMTDTINEPILLCR (UniProt O43776),-0.0695
10,MYSM1_Q5VVJ2_564_SSFDPFQLIPCNFFSEEK (UniProt Q5VVJ2),0.0331
11,NAA16_Q6N069_221_QICDKLLVEEIK (UniProt Q6N069),-0.37
12,NCAPD3_P42695_824_ASAETPAEEQELLTQVCGDVLSTCEHR (UniProt P42695),0.231
13,NAA25_Q14CX7_339_SQGCNDEYK (UniProt Q14CX7),0.0881
14,NCAPG2_Q86XI2_401_STGILGVCK (UniProt Q86XI2),-0.0524
15,NCAM2_O15394_380_YDCEAASR (UniProt O15394),0.108
16,MYO1G_B0I1T2_618_LDENHCR (UniProt B0I1T2),0.054
17,NAE1_Q13564_153_LADVLWNSQIPLLICR (UniProt Q13564),0.0486
18,MYO18A_Q92614_783_SSQHSLCSMMIVDTPGFQNPEQGGSAR (UniProt Q92614),0.0781
19,MYO9B_Q13459_1279_SKPCGSPR (UniProt Q13459),-0.0654

# Reference: the supplement of paper PMC12067093, “Discovery and optimisation of a covalent ligand for TRIM25 and its application to targeted protein ubiquitination” (Chemical Science, 2025)
